One substance from article doi:10.1101/2025.09.02.673672 can be followed below.

Protein sequences, listed by entry. Tags and fused reporters are not part of them. Residues count along the entry.
UniProt Q9WJB2, 3808-3960: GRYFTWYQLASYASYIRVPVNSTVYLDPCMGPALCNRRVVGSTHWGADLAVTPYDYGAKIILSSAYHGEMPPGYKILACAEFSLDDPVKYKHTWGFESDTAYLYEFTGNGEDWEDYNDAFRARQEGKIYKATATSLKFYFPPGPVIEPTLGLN

Results are given in words; binding and its absence hold for the method and conditions named. Some entries that bind do so weakly or less than the wild type. Sequences can lack the tags named with a protein.

In experiment [1] the target is T1, pGBKT7-NBR1 (bait fusion) (UniProt Q14596).
T1 sequence: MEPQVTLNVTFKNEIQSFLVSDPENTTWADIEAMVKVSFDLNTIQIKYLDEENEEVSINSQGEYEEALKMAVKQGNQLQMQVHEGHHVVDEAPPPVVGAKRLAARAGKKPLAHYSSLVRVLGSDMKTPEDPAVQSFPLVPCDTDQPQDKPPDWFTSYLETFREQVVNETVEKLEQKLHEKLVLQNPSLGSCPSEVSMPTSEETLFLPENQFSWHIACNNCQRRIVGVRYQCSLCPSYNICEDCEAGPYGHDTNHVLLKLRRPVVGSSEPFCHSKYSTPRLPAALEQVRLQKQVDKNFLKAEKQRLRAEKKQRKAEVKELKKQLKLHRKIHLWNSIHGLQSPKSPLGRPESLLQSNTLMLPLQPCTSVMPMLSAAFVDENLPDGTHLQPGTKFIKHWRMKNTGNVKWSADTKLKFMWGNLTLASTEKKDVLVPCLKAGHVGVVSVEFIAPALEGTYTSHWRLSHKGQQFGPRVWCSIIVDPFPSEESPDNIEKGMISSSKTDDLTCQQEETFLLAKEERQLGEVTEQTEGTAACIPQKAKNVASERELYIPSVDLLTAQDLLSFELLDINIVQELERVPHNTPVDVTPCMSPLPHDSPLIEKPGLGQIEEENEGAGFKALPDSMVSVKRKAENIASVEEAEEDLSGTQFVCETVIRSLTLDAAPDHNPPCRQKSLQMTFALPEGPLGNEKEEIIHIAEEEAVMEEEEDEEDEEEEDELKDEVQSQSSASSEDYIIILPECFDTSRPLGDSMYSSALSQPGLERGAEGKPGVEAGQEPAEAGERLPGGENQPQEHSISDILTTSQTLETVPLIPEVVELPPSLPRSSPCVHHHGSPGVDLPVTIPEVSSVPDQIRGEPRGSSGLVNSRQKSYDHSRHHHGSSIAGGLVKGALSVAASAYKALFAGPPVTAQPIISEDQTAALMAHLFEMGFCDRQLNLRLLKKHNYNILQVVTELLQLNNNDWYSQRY
Nature of the experiment: two-hybrid.

Experiment [2] has as its target T2, pGBKT7-NDP52 (bait fusion) (UniProt Q13137).
T2 sequence: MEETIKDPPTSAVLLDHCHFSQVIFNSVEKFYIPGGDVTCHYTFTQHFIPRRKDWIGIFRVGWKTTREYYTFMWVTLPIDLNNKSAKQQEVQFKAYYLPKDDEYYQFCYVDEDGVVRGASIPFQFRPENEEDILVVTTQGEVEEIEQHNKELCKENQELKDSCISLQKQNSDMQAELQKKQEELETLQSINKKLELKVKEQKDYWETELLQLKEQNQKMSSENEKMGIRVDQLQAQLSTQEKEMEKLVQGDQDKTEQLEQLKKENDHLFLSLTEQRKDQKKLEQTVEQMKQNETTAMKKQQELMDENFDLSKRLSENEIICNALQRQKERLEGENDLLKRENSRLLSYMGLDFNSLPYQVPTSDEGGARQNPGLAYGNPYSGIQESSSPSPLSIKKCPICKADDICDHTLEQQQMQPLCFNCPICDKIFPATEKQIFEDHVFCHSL
Nature of the experiment: two-hybrid.

Consider “pGADT7-nsp12 (PRRSV nsp12 prey fusion) (from UniProt Q9WJB2 3808-3960)”, for which the binding result in experiment [1] and in experiment [2] was “binds” in each case.
